# Measurements taken from the supplement of paper PMC8728848.
# Some of the results follow.
# Tests used:
# Assay in all cases: glycan array binding signal (z-score within array); higher = stronger binding
# Conditions in all cases: glycan notation: IUPAC condensed, linker removed
# [1] = molecular target: Neu5Ac(a2-6)Gal(b1-4)GlcNAc(b1-2)Man(a1-3)[GlcNAc(b1-2)Man(a1-6)]Man(b1-4)GlcNAc(b1-4)GlcNAc
# How it was run: (§1)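 The binding signal is a Z-score computed within each array. Data were drawn from 3228 arrays in the Consortium for Functional Glycomics database, restricted to those with a known protein sequence. Scores were averaged over arrays of the same protein sequence at different concentrations or buffers, and over linkers, and negative values can be taken as non-binding.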
# [2] = molecular target: Neu5Ac(a2-6)Gal(b1-4)GlcNAc(b1-2)Man(a1-3)[GlcNAc(b1-2)Man(b1-4)GlcNAc(b1-2)Man(a1-6)]Man(b1-4)GlcNAc(b1-4)GlcNAc
# How it was run: as §1
# [3] = molecular target: Neu5Ac(a2-6)Gal(b1-4)GlcNAc(b1-2)Man(a1-3)[Man(a1-6)]Man(b1-4)GlcNAc(b1-4)GlcNAc
# How it was run: as §1
# [4] = molecular target: Neu5Ac(a2-6)Gal(b1-4)GlcNAc(b1-2)Man(a1-3)[Neu5Ac(a2-6)Gal(b1-4)GlcNAc(b1-2)Man(a1-6)]Man(b1-4)GlcNAc(b1-4)GlcNAc
# How it was run: as §1
# [5] = molecular target: Neu5Ac(a2-6)Gal(b1-4)GlcNAc(b1-2)Man(a1-6)Man(b1-4)GlcNAc(b1-4)GlcNAc
# How it was run: as §1
# [6] = molecular target: Neu5Ac(a2-6)Gal(b1-4)GlcNAc(b1-2)Man(a1-6)[Gal(b1-4)GlcNAc(b1-2)Man(a1-3)]Man(b1-4)GlcNAc(b1-4)GlcNAc
# How it was run: as §1
# [7] = molecular target: Neu5Ac(a2-6)Gal(b1-4)GlcNAc(b1-2)Man(a1-6)[GlcNAc(b1-2)Man(a1-3)]Man(b1-4)GlcNAc(b1-4)GlcNAc
# How it was run: as §1
# [8] = molecular target: Neu5Ac(a2-6)Gal(b1-4)GlcNAc(b1-2)Man(a1-6)[Man(a1-3)]Man(b1-4)GlcNAc(b1-4)GlcNAc
# How it was run: as §1
# [9] = molecular target: Neu5Ac(a2-6)Gal(b1-4)GlcNAc(b1-3)Gal(b1-3)GlcNAc
# How it was run: as §1
# [10] = molecular target: Neu5Ac(a2-6)Gal(b1-4)GlcNAc(b1-3)Gal(b1-4)GlcNAc
# How it was run: as §1
# [11] = molecular target: Neu5Ac(a2-6)Gal(b1-4)GlcNAc(b1-3)Gal(b1-4)GlcNAc(b1-3)Gal(b1-4)GlcNAc
# How it was run: as §1
# [12] = molecular target: Neu5Ac(a2-6)Gal(b1-4)GlcNAc(b1-3)Gal(b1-4)[Fuc(a1-3)]GlcNAc(b1-3)Gal(b1-4)[Fuc(a1-3)]GlcNAc
# How it was run: as §1
# [13] = molecular target: Neu5Ac(a2-6)Gal(b1-4)GlcNAc(b1-3)GalNAc
# How it was run: as §1
# [14] = molecular target: Neu5Ac(a2-6)Gal(b1-4)GlcNAc6S
# How it was run: as §1
# Neu5Ac(a2-6)GalNAc = molecular target: Neu5Ac(a2-6)GalNAc
# How it was run: as §1
# [15] = molecular target: Neu5Ac(a2-6)GalNAc(b1-4)GlcNAc
# How it was run: as §1
# [16] = molecular target: Neu5Ac(a2-6)GlcNAc(b1-4)GlcNAc
# How it was run: as §1
# [17] = molecular target: Neu5Ac(a2-6)GlcNAc(b1-4)GlcNAc(b1-4)GlcNAc
# How it was run: as §1
# Neu5Ac(a2-8)Neu5Ac = molecular target: Neu5Ac(a2-8)Neu5Ac
# How it was run: as §1
# [18] = molecular target: Neu5Ac(a2-8)Neu5Ac(a2-3)Gal(b1-3)GalNAc(b1-4)[Neu5Ac(a2-8)Neu5Ac(a2-3)]Gal(b1-4)Glc
# How it was run: as §1
# [19] = molecular target: Neu5Ac(a2-8)Neu5Ac(a2-3)Gal(b1-4)Glc
# How it was run: as §1
# [20] = molecular target: Neu5Ac(a2-8)Neu5Ac(a2-3)[Gal(b1-3)GalNAc(b1-4)]Gal(b1-4)Glc
# How it was run: as §1
# [21] = molecular target: Neu5Ac(a2-8)Neu5Ac(a2-3)[GalNAc(b1-4)]Gal(b1-4)Glc
# How it was run: as §1
# [22] = molecular target: Neu5Ac(a2-8)Neu5Ac(a2-8)Neu5Ac
# How it was run: as §1
# [23] = molecular target: Neu5Ac(a2-8)Neu5Ac(a2-8)Neu5Ac(a2-3)Gal(b1-4)Glc
# How it was run: as §1
# [24] = molecular target: Neu5Ac(a2-8)Neu5Ac(a2-8)Neu5Ac(a2-3)[GalNAc(b1-4)]Gal(b1-4)Glc
# How it was run: as §1
# [25] = molecular target: Neu5Ac(a2-8)Neu5Ac(a2-8)Neu5Ac(a2-8)Neu5Ac(a2-3)[GalNAc(b1-4)]Gal(b1-4)Glc
# How it was run: as §1
# [26] = molecular target: Neu5Ac(b2-6)Gal(b1-4)GlcNAc
# How it was run: as §1
# Neu5Ac(b2-6)GalNAc = molecular target: Neu5Ac(b2-6)GalNAc
# How it was run: as §1
# [27] = molecular target: Neu5Ac9Ac(a2-3)Gal(b1-3)GlcNAc
# How it was run: as §1
# [28] = molecular target: Neu5Ac9Ac(a2-3)Gal(b1-4)GlcNAc
# How it was run: as §1
# [29] = molecular target: Neu5Ac9Ac(a2-6)Gal(b1-4)GlcNAc
# How it was run: as §1
# [30] = molecular target: Neu5Gc(a2-3)Gal(b1-3)GlcNAc
# How it was run: as §1
# [31] = molecular target: Neu5Gc(a2-3)Gal(b1-3)[Fuc(a1-4)]GlcNAc
# How it was run: as §1
# Neu5Gc(a2-3)Gal(b1-4)Glc = molecular target: Neu5Gc(a2-3)Gal(b1-4)Glc
# How it was run: as §1
# [32] = molecular target: Neu5Gc(a2-3)Gal(b1-4)GlcNAc
# How it was run: as §1
# [33] = molecular target: Neu5Gc(a2-3)Gal(b1-4)[Fuc(a1-3)]GlcNAc
# How it was run: as §1
# [34] = molecular target: Neu5Gc(a2-6)Gal(b1-4)GlcNAc
# How it was run: as §1
# Neu5Gc(a2-6)GalNAc = molecular target: Neu5Gc(a2-6)GalNAc
# How it was run: as §1
# [35] = molecular target: Neu5Gc(b2-6)Gal(b1-4)GlcNAc
# How it was run: as §1
binder,measurement,setting,value
"Intelectin 1 (Homo sapiens), Q8WWA0 (protein) MNQLSFLLFLIATTRGWSTDEANTYFKEWTCSSSPSLPRSCKEIKDECPSAFDGLYFLRTENGVIYQTFCDMTSGGGGWTLVASVHENDMRGKCTVGDRWSSQQGSKAVYPEGDGNWANYNTFGSAEAATSDDYKNPGYYDIQAKDLGIWHVPNKSPMQHWRNSSLLRYRTDTGFLQTLGHNLFGIYQKYPVKYGEGKCWTDNGPVIPVVYDFGDAQKTASYYSPYGQREFTAGFVQFRVFNNERAANALCAGMRVTGCNTEHHCIGGGGYFPEASPQQCGDFSGFDWSGYGTHVGYSSSREITEAAVLLFYR",glycan array binding signal (z-score),[1],-0.299
same,glycan array binding signal (z-score),[2],0.602
same,glycan array binding signal (z-score),[3],0.125
same,glycan array binding signal (z-score),[4],0.186
same,glycan array binding signal (z-score),[5],-0.5
same,glycan array binding signal (z-score),[6],-0.416
same,glycan array binding signal (z-score),[7],1.24
same,glycan array binding signal (z-score),[8],0.21
same,glycan array binding signal (z-score),[9],-0.051
same,glycan array binding signal (z-score),[10],-1.1
same,glycan array binding signal (z-score),[11],-0.649
same,glycan array binding signal (z-score),[12],0.681
same,glycan array binding signal (z-score),[13],0.629
same,glycan array binding signal (z-score),[14],-0.532
same,glycan array binding signal (z-score),Neu5Ac(a2-6)GalNAc,-0.44
same,glycan array binding signal (z-score),[15],0.53
same,glycan array binding signal (z-score),[16],-0.166
same,glycan array binding signal (z-score),[17],-0.643
same,glycan array binding signal (z-score),Neu5Ac(a2-8)Neu5Ac,-0.081
same,glycan array binding signal (z-score),[18],0.145
same,glycan array binding signal (z-score),[19],0.12
same,glycan array binding signal (z-score),[20],0.572
same,glycan array binding signal (z-score),[21],-0.219
same,glycan array binding signal (z-score),[22],-0.402
same,glycan array binding signal (z-score),[23],0.459
same,glycan array binding signal (z-score),[24],-0.731
same,glycan array binding signal (z-score),[25],0.332
same,glycan array binding signal (z-score),[26],0.463
same,glycan array binding signal (z-score),Neu5Ac(b2-6)GalNAc,0.144
same,glycan array binding signal (z-score),[27],0.121
same,glycan array binding signal (z-score),[28],-1.01
same,glycan array binding signal (z-score),[29],0.653
same,glycan array binding signal (z-score),[30],0.417
same,glycan array binding signal (z-score),[31],-0.969
same,glycan array binding signal (z-score),Neu5Gc(a2-3)Gal(b1-4)Glc,-1.04
same,glycan array binding signal (z-score),[32],0.78
same,glycan array binding signal (z-score),[33],0.832
same,glycan array binding signal (z-score),[34],-0.17
same,glycan array binding signal (z-score),Neu5Gc(a2-6)GalNAc,0.523
same,glycan array binding signal (z-score),[35],0.526
